# PubChem BioAssay AID1259405 | NCATS | 2018
# Test: 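Knock-downs that lift recombinant protein yield in hamster ovary cells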 (primary screen)
# Cell system: Chinese hamster CHO-K1 ovary cells with stable secreted eGFP expression
# Reagents: single siRNA against mouse genes, 0.8 pmol siRNA per well (2 µl of 400 nM stock)
# Time to read-out: 3 days
# Detection: 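Percent of the per-plate non-targeting control median for intracellular GFP per well by laser scanning cytometry and for cell viability by ATP luminescence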
# Reading the numbers: GFP, % of control: higher = more GFP per well, higher productivity; viability (ATP), % of control: higher = more viable cells (more ATP)
# Call rule: 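Called active when intracellular GFP, relative to negative control, is at or above 120%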
# The whole screen tested about 50,000 reagents; below is a random part of them. About 4,000 of all reagents (8%) count as active. 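Mouse siRNA library applied to hamster cells; one well for each siRNA.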 Entries without a mark were called inactive. The numbers tell different reagents against one gene apart. No sequences are given here.
gene,reagent,"GFP, % of control","viability (ATP), % of control"
Prl7d1,1,118,87.4
Prl7d1,2,41.5,64.8
Prl7d1,3,62.6,70.3
Dhx37,1,78.4,71.2
Dhx37,2,51.2,58.3
Dhx37,3,79.7,76.2
Serpine1,1,68.7,91.3
Serpine1,2,59.2,85.6
Serpine1,3,96.7,80.4
Kif11,1,60.8,36.1
Kif11,2,61.2,80.4
Or10q12,1,183 (active),97
Or10q12,2,52.8,62.6
Or10q12,3,62.5,70.2
Prkag2,1,56.7,50.3
Prkag2,2,66.4,69.4
Or11q2,1,83.8,56.1
Or11q2,2,82.9,90.7
Or11q2,3,50.9,21.5
Jkampl,1,48.7,49.5
Jkampl,2,58,31.4
Jkampl,3,123 (active),129
Krt9,1,29,61
Krt9,2,64.2,66.8
Krt9,3,53.2,72.1
Vmn2r57,1,130 (active),149
Vmn2r57,2,91.7,58.9
Vmn2r57,3,54.3,58.1
Napsa,1,77.5,102
Napsa,2,51.3,60.9
Napsa,3,61.9,62.8
Upp2,1,97.8,116
Upp2,2,84.9,104
Upp2,3,101,106
Best2,1,44.5,59.9
Best2,2,135 (active),125
Best2,3,148 (active),74.5
Six3os1,1,84,90.9
Six3os1,2,95.7,56.4
Six3os1,3,95.6,99.9

Called active (from the list above):
gene,reagent,"GFP, % of control","viability (ATP), % of control"
Or10q12,1,183 (active),97
Jkampl,3,123 (active),129
Vmn2r57,1,130 (active),149
Best2,2,135 (active),125
Best2,3,148 (active),74.5

The list goes on:
gene,reagent,"GFP, % of control","viability (ATP), % of control"
Sostdc1,1,40.1,72.9
Sostdc1,2,160 (active),82.9
Sostdc1,3,86.1,79.4
Cdo1,1,59.9,41.9
Cdo1,2,91,78.3
Cdo1,3,90.6,74.7
Npc1,1,49.2,77.2
Npc1,2,85.8,76.4
Npc1,3,65.2,56.2
Hipk1,1,101,45.5
Hipk1,2,69.2,59.5
Hipk1,3,78.2,91.2
Xpa,1,85.7,79.3
Xpa,2,89.9,83.2
Tbk1,1,96.3,78.8
Tbk1,2,64.3,59.9
Tbk1,3,73.8,72.5
Ca12,1,137 (active),129
Ca12,2,72.7,74.2
Habp4,1,45.8,62.2
Habp4,2,98,83.7
Habp4,3,167 (active),81.6
Tex261,1,64.7,91.7
Tex261,2,77.7,131
Tex261,3,183 (active),138
Gpr33,1,73.8,53.4
Gpr33,2,60.1,82.1
Gpr33,3,77,82
Katnal2,1,122 (active),96.2
Katnal2,2,95.1,84.4
Katnal2,3,64.1,53.5
Phaf1,1,99.2,115
Phaf1,2,82.2,86.4
Phaf1,3,121 (active),82.9
Col15a1,1,113,130
Col15a1,2,74.8,88.5
Emb,1,109,60.1
Emb,2,61.1,86.2
Emb,3,94.7,99.8
Gnptab,1,103,79.9
Gnptab,2,66,75
Gnptab,3,93.8,85
Nadk,1,65.4,87.2
Arfrp1,1,114,93.5
Arfrp1,2,85.2,97.3
Arfrp1,3,94.3,111
